Reference: patent US20120309706A1, “COMBINED TREATMENT OF PANCREATIC CANCER WITH GEMCITABINE AND MASITINIB” (AB SCIENCE, priority 2010, published 2012)
At least one structure is not confirmed: it was looked up by name or label, or the drawing left a doubt.

Tested on: Mia Paca-2
Assay: WST-1 proliferation/survival assay, Mia Paca-2
Assay type: cell-based, human
Protocol: Sensitivity of pancreatic tumour cell lines to masitinib or gemcitabine as single agents, or in combination, was assessed using WST-1 proliferation assays. Four cell lines were tested for their sensitivity to masitinib (A) or gemcitabine (B). […] (D) Sensitivity of resistant Mia Paca-2 cells to various tyrosine kinase inhibitors alone (top) or in combination with gemcitabine (bottom) was analyzed in WST-1 proliferation assays.
Pancreatic cancer cells lines (Mia Paca-2, Panc-1, BxPC-3 and Capan-2) were obtained from Dr. Juan Iovanna (Inserm, France). Cells were maintained in RPMI (BxPC-3, Capan-2) or DMEM (Mia Paca-2, Panc-1) medium containing glutamax-1 (Lonza), supplemented with 100 U/ml penicillin/100 μg/ml streptomycin, and 10% foetal calf serum (FCS) (AbCys, Lot S02823S1800). Expression of tyrosine kinases was determined by RT-PCR using Hot Star Taq (Qiagen GmbH, Hilden, Germany) in a 2720 Thermal Cycler (Applied Biosystems).
Cytotoxicity of masitinib and gemcitabine was assessed using a WST-1 proliferation/survival assay (Roche diagnostic) in growth medium containing 1% FCS. Treatment was started with the addition of the respective drug. […] After 72 hours WST-1 reagent was added and incubated with the cells for 4 hours before absorbance measurement at 450 nm in an EL800 Universal Microplate Reader (Bio-Tek Instruments Inc.). […]

**Q.** Cc1nc(Nc2ncc(C(=O)Nc3c(C)cccc3Cl)s2)cc(N2CCN(CCO)CC2)n1 [dasatinib] was tested. Which “response of Mia Paca-2 cells to gemcitabine after pre-incubation with TKI” value (10 μM imatinib or dasatinib, compared to masitinib) did it give?
**A.** Its value is “did not result in an increased response”.

**Q.** And the “Mia Paca-2 cell proliferation, TKI alone” value (dasatinib >0.1 μM)?
**A.** Its value is “partially inhibited”.
